Here are results for 23 targets from the supplement of paper PMC10849652.

Protein sequences, listed by entry. Tags and fused reporters are not part of them. Lines headed by an entry give the natural chain unless they say otherwise; changes in a name come on top.
UniProt Q8WZ82: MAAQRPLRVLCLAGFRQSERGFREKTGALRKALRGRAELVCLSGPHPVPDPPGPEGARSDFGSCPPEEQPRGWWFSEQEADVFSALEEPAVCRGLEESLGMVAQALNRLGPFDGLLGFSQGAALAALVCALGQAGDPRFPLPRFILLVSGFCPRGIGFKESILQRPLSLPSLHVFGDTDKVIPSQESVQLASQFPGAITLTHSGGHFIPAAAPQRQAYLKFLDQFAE
UniProt Q5SRE5: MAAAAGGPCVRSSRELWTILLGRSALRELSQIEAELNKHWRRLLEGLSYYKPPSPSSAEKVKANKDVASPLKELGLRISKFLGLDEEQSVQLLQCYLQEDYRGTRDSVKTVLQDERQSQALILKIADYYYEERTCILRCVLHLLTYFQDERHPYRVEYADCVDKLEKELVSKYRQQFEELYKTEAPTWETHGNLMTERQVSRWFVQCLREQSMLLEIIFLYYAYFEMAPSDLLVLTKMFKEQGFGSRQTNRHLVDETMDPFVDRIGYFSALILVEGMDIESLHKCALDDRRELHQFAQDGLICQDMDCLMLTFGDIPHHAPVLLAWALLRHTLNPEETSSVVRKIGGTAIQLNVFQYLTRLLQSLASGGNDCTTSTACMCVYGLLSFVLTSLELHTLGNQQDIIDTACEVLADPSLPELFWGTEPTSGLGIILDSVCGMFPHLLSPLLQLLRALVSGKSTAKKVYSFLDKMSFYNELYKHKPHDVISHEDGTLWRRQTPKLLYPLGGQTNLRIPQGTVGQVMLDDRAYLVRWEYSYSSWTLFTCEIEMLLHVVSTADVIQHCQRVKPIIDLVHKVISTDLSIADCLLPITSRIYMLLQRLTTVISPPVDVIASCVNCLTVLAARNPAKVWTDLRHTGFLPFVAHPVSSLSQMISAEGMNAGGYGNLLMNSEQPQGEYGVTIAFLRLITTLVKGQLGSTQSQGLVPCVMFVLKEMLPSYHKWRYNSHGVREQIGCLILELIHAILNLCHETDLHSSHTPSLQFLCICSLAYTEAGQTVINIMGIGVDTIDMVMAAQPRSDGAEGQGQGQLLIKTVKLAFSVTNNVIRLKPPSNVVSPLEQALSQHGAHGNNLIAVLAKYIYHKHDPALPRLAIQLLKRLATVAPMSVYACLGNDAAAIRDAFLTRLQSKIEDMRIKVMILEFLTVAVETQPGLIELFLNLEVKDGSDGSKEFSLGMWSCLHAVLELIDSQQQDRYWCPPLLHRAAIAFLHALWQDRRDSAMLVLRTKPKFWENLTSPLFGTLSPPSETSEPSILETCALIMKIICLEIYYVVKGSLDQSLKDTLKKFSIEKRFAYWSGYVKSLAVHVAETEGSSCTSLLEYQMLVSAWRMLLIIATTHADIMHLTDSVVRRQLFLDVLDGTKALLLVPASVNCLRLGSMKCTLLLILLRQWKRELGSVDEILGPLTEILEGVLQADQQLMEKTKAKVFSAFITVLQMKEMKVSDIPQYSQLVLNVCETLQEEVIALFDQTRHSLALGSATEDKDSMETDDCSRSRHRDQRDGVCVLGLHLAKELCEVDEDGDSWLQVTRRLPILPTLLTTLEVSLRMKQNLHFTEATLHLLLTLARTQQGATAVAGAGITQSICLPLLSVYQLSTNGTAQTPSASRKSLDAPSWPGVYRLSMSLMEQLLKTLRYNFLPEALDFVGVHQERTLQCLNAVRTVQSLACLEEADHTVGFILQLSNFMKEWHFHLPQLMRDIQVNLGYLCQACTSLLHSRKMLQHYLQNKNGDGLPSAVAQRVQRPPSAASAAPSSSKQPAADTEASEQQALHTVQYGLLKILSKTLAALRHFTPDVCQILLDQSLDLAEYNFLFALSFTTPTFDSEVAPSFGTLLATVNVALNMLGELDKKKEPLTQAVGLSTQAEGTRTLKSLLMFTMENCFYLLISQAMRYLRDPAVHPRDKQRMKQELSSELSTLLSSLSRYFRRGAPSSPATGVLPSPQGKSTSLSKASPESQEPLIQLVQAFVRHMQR
UniProt Q02818: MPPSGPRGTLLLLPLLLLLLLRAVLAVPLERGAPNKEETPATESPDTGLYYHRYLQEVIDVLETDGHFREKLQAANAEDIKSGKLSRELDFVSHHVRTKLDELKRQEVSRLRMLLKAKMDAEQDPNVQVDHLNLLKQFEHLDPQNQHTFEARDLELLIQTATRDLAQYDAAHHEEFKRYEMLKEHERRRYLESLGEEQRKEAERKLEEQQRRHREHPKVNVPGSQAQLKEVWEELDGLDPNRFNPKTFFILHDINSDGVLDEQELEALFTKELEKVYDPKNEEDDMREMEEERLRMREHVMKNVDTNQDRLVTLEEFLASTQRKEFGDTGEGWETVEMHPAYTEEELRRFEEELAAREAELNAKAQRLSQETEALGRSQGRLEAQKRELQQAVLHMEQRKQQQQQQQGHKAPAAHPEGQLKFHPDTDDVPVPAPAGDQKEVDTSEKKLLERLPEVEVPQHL
UniProt P55809: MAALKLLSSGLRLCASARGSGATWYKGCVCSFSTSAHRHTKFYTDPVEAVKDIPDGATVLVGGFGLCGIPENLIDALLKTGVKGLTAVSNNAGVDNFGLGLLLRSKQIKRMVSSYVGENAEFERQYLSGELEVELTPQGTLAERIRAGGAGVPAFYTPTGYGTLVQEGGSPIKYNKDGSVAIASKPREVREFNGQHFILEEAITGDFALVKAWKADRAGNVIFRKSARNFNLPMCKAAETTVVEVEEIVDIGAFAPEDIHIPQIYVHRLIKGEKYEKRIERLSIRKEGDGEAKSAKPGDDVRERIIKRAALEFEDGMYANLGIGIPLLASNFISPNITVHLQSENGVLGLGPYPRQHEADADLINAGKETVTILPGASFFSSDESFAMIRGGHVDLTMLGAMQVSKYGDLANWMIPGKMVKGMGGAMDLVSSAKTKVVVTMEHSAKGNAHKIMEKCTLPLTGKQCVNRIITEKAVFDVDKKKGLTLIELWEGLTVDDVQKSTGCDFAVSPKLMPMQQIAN
UniProt P61970, whole entry, looked up: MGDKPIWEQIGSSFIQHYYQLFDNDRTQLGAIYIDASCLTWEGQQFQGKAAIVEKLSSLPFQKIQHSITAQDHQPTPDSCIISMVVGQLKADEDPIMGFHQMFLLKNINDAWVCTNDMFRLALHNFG
UniProt Q9H857: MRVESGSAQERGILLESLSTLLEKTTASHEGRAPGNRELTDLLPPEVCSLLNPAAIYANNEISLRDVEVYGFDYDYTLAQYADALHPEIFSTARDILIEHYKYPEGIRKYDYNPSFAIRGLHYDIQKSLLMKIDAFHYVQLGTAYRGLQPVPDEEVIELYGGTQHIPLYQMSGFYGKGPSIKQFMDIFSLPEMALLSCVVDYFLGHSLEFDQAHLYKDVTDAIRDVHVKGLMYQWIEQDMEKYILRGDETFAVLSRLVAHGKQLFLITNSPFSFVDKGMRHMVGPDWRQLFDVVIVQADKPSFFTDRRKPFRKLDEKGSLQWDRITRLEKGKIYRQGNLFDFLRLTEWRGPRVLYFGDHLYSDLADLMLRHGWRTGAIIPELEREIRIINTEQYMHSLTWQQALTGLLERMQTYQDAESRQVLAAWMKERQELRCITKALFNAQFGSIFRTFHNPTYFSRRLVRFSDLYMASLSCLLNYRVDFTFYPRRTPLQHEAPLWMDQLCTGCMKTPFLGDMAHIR
UniProt Q9BRP4: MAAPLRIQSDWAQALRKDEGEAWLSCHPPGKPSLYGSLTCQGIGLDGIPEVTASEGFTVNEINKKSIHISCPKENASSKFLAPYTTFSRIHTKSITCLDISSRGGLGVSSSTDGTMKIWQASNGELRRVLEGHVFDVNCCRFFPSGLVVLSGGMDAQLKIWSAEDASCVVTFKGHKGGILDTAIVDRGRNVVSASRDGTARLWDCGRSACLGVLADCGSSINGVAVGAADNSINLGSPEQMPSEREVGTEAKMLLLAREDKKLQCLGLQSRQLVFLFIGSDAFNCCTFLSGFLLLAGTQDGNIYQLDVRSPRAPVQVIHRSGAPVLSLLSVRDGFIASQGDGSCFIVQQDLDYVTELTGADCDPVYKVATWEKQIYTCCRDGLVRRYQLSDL
UniProt Q8TB37: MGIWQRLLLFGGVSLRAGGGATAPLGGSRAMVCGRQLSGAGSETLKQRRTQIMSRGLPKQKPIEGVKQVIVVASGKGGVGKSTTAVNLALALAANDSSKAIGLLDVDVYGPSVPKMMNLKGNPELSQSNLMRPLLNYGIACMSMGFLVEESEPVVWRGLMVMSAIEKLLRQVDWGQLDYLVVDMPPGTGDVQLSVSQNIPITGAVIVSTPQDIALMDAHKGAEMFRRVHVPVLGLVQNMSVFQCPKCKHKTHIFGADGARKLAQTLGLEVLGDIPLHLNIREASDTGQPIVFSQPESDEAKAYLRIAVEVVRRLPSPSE
UniProt P13674: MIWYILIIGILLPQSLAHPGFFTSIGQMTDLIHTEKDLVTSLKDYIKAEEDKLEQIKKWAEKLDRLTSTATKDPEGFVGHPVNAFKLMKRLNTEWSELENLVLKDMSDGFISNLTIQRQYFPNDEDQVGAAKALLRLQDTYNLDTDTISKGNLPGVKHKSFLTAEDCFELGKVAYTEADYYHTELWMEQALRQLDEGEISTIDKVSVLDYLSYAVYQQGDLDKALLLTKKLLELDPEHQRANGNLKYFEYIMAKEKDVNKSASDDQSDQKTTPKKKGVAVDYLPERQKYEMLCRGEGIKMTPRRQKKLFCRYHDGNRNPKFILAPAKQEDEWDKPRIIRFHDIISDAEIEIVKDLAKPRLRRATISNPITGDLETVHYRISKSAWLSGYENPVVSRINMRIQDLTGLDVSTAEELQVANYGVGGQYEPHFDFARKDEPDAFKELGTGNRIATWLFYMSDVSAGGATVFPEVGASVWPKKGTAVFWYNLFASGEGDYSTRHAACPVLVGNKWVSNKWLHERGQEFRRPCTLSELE
UniProt Q9NX40: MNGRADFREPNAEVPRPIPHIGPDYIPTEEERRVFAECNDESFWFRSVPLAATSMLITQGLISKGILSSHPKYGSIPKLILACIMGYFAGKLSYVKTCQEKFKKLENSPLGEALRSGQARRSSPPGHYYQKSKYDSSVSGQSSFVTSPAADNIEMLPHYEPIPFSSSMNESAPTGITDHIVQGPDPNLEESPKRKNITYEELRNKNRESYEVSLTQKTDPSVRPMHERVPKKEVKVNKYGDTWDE
UniProt Q96SU4: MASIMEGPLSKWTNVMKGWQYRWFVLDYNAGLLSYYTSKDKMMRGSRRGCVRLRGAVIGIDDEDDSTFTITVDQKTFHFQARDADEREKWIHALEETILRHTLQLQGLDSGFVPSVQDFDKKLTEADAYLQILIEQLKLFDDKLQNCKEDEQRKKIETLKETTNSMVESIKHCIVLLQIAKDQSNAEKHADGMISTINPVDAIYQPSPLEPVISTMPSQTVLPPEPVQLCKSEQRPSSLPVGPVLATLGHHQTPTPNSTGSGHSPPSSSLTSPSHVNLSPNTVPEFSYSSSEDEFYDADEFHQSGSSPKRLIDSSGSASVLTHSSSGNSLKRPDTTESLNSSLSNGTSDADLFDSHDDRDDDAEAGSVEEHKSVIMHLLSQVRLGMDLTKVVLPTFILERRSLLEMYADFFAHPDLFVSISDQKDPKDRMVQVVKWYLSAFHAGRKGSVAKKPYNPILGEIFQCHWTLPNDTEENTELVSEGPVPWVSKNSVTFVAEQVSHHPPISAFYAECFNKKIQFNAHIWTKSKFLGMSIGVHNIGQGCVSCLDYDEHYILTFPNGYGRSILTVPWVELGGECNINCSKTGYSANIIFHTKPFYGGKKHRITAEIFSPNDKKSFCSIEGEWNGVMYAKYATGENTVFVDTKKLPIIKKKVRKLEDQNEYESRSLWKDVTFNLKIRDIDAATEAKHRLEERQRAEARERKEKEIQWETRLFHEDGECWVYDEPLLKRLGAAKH
UniProt Q969T7: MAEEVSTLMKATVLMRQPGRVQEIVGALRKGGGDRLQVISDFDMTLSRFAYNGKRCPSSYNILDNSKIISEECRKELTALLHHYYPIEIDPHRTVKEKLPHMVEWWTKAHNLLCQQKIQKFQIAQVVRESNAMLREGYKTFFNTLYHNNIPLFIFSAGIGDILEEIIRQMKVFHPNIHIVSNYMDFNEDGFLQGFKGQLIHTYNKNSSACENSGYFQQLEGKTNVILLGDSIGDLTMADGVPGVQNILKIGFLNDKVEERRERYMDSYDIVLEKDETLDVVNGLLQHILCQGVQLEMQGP
UniProt Q96CB9: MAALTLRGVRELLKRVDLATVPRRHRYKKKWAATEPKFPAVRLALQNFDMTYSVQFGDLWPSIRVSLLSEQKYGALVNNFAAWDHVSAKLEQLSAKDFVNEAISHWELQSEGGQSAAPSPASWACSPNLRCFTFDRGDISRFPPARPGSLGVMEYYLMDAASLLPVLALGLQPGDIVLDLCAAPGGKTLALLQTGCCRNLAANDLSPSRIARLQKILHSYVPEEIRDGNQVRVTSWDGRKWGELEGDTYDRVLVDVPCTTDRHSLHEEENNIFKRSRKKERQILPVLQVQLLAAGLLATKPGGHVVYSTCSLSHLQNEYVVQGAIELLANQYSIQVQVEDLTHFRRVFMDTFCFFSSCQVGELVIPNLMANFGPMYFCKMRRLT

Some of the results follow.

Compound in this assay: C1=CC=C(C=C1)[C@H](COC2=CC3=C(C=C2)NC(=O)N3)NC(=O)C4=CC=CN(C4=O)CC5=CC(=C(C=C5)F)F
Kind of assay: log2 fold change, soluble protein after heating vs DMSO (PISA); higher = thermal stabilisation; K562 cells, 10 uM, 30 min; active = over 0.2 and 3.5 SD of the protein, either way, in both replicates (recomputed). In a few lines: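 Soluble protein was quantified by TMTpro 16plex LC-MS/MS after channel sums were equalised. It was obtained as the supernatant after 21,000xg for 90 min from pooled aliquots of K562 cells (2×10^6 cells/mL, 10 μM compound, 30 min) heated for 3 min across 48°C-58°C and extracted in PBS with 0.5% NP-40 at 4°C. Thermal stability values are relative to control samples and come from duplicates. They are given as log2 fold changes.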
Regarding OAS3 (UniProt Q9Y6K5), the log2 fold change is inactive: -0.202.

For the target OGFOD3 (UniProt Q6PK18), the log2 fold change is inactive: 0.185.

With NUP43 (UniProt Q8NFH3), the log2 fold change is inactive: 0.033.

As for OVCA2 (UniProt Q8WZ82), the log2 fold change was inactive: -0.152.

On to NUP188 (UniProt Q5SRE5), for which the log2 fold change is inactive: -0.016.

In the case of NUP205 (UniProt Q92621), the log2 fold change is inactive: -0.004.

Consider NUCB1 (UniProt Q02818), for which the log2 fold change was inactive: 0.

For OXCT1 (UniProt P55809), the log2 fold change was inactive: -0.001.

For NUTF2 (UniProt P61970), the log2 fold change was inactive: 0.037.

As for NT5DC2 isoform 2 (UniProt Q9H857), the log2 fold change was inactive: 0.03.

As to PAAF1 (UniProt Q9BRP4), the log2 fold change was inactive: -0.012.

NUCB2 (UniProt P80303): the log2 fold change is inactive: 0.007.

On to NUBPL (UniProt Q8TB37), for which the log2 fold change is inactive: -0.027.

For OTUD5 isoform 5 (UniProt Q96G74), the log2 fold change was inactive: 0.043.

Regarding NUSAP1 (UniProt Q9BXS6), the log2 fold change was inactive: -0.05.

For the target NUDT5 (UniProt Q9UKK9), the log2 fold change is inactive: 0.018.

As for P4HA1 isoform 2 (UniProt P13674), the log2 fold change was inactive: 0.065.

As for OSGEP (UniProt Q9NPF4), the log2 fold change was inactive: -0.013.

In the case of OCIAD1 (UniProt Q9NX40), the log2 fold change was inactive: 0.012.

For the target OSBPL9 (UniProt Q96SU4), the log2 fold change was inactive: -0.067.

For the target NT5C3B (UniProt Q969T7), the log2 fold change is inactive: 0.001.

As to NUP58 (UniProt Q9BVL2), the log2 fold change was inactive: 0.017.

As to NSUN4 (UniProt Q96CB9), the log2 fold change is inactive: -0.015.
